{
  "source": "PubChem BioAssay AID248",
  "about": "(DTP/NCI, 2004)",
  "system": "L1210 leukemia ip in BDF1 mice, survival T/C",
  "experiment": "NCI In Vivo Anticancer Drug Screen. Data for tumor model L1210 Leukemia (intraperitoneal) in B6D2F1 (BDF1) mice",
  "conditions": "T/C endpoint: mean survival time, higher T/C = longer survival",
  "note": "The list does not hold the whole screen: it gathers some chemical classes. Not every dose and run of a compound is shown. T/C gives the treated animals as a percentage of the vehicle group. Where survival is the endpoint, this PubChem deposit counts one and a half times the control or more as active, and values a quarter to a half above the control carry no call in these data; other NCI protocols may use other cut-offs. Some entries show no survivor count and are marked so; the dose need not have been tolerated. Schedules are NCI's codes, taken here to give the interval after Q, in days (D) or hours (H), and the number of doses after X. Some entries were tested several times; the results are listed from low to high.",
  "data": [
    {"smiles": "CCC(C)(O)C#CCN(CCCl)CCCl", "note": "(stereo unspecified)", "values": [
      {"measurement": "T/C", "setting": "dose: 2.2 mg/kg/injection, schedule: Q01DX001 (ip), vehicle: saline", "result": "109 % of control [survivor count not shown]"},
      {"measurement": "T/C", "setting": "dose: 5.0 mg/kg/injection, schedule: Q01DX009 (ip), vehicle: saline", "result": "119 % of control [survivor count not shown]"},
      {"measurement": "T/C", "setting": "dose: 5.5 mg/kg/injection, schedule: Q01DX001 (ip), vehicle: saline", "result": "115 % of control [survivor count not shown]"},
      {"measurement": "T/C", "setting": "dose: 6.25 mg/kg/injection, schedule: Q01DX001 (ip), vehicle: saline", "result": "117 % of control [survivor count not shown]"},
      {"measurement": "T/C", "setting": "dose: 6.25 mg/kg/injection, schedule: Q01DX009 (ip), vehicle: saline", "result": "105 % of control [survivor count not shown]"},
      {"measurement": "T/C", "setting": "dose: 7.5 mg/kg/injection, schedule: Q01DX009 (ip), vehicle: saline", "result": "130 % of control [survivor count not shown]"},
      {"measurement": "T/C", "setting": "dose: 11.0 mg/kg/injection, schedule: Q01DX001 (ip), vehicle: saline", "result": "113 [survivor count not shown], 124 [survivor count not shown], 136 % of control [survivor count not shown]"},
      {"measurement": "T/C", "setting": "dose: 11.0 mg/kg/injection, schedule: Q01DX009 (ip), vehicle: saline", "result": "131 % of control [survivor count not shown]"},
      {"measurement": "T/C", "setting": "dose: 12.5 mg/kg/injection, schedule: Q01DX001 (ip), vehicle: saline", "result": "111 % of control [survivor count not shown]"},
      {"measurement": "T/C", "setting": "dose: 12.5 mg/kg/injection, schedule: Q01DX009 (ip), vehicle: saline", "result": "103 % of control [survivor count not shown]"},
      {"measurement": "T/C", "setting": "dose: 16.5 mg/kg/injection, schedule: Q01DX009 (ip), vehicle: saline", "result": "98 % of control [survivor count not shown]"},
      {"measurement": "T/C", "setting": "dose: 16.6 mg/kg/injection, schedule: Q01DX001 (ip), vehicle: saline", "result": "120 [survivor count not shown] and 138 % of control [survivor count not shown]"},
      {"measurement": "T/C", "setting": "dose: 25.0 mg/kg/injection, schedule: Q01DX001 (ip), vehicle: saline", "result": "111 [survivor count not shown], 117 [survivor count not shown], 135 % of control [survivor count not shown]"},
      {"measurement": "T/C", "setting": "dose: 37.5 mg/kg/injection, schedule: Q01DX001 (ip), vehicle: saline", "result": "87 [survivor count not shown] and 129 % of control [survivor count not shown]"}
    ]},
    {"smiles": "Oc1cc(O)cc(N(CCCl)CCCl)c1", "values": [
      {"measurement": "T/C", "setting": "dose: 25.0 mg/kg/injection, schedule: Q01DX009 (ip), vehicle: water", "result": "104 % of control [survivor count not shown]"},
      {"measurement": "T/C", "setting": "dose: 50.0 mg/kg/injection, schedule: Q01DX009 (ip), vehicle: water", "result": "110 % of control [survivor count not shown]"},
      {"measurement": "T/C", "setting": "dose: 100.0 mg/kg/injection, schedule: Q01DX009 (ip), vehicle: water", "result": "114 % of control [survivor count not shown]"},
      {"measurement": "T/C", "setting": "dose: 200.0 mg/kg/injection, schedule: Q01DX009 (ip), vehicle: water", "result": "106 % of control [survivor count not shown]"}
    ]},
    {"smiles": "Cc1ccc(C(=O)O)cc1N(CCCl)CCCl", "values": [
      {"measurement": "T/C", "setting": "dose: 1.1 mg/kg/injection, schedule: Q01DX009 (ip), vehicle: Klucel (hydroxypropylcellulose) (HPC)", "result": "116 % of control [survivor count not shown]"},
      {"measurement": "T/C", "setting": "dose: 1.56 mg/kg/injection, schedule: Q01DX009 (ip), vehicle: Klucel (hydroxypropylcellulose) (HPC)", "result": "103 % of control [survivor count not shown]"},
      {"measurement": "T/C", "setting": "dose: 1.7 mg/kg/injection, schedule: Q01DX009 (ip), vehicle: Klucel (hydroxypropylcellulose) (HPC)", "result": "108 % of control [survivor count not shown]"},
      {"measurement": "T/C", "setting": "dose: 2.6 mg/kg/injection, schedule: Q01DX009 (ip), vehicle: Klucel (hydroxypropylcellulose) (HPC)", "result": "117 % of control [survivor count not shown]"},
      {"measurement": "T/C", "setting": "dose: 3.12 mg/kg/injection, schedule: Q01DX009 (ip), vehicle: Klucel (hydroxypropylcellulose) (HPC)", "result": "108 % of control [survivor count not shown]"},
      {"measurement": "T/C", "setting": "dose: 3.12 mg/kg/injection, schedule: Q04DX003 (ip), vehicle: Klucel (hydroxypropylcellulose) (HPC)", "result": "90 % of control [survivor count not shown]"},
      {"measurement": "T/C", "setting": "dose: 4.0 mg/kg/injection, schedule: Q01DX009 (ip), vehicle: Klucel (hydroxypropylcellulose) (HPC)", "result": "105 % of control [survivor count not shown]"},
      {"measurement": "T/C", "setting": "dose: 6.1 mg/kg/injection, schedule: Q01DX009 (ip), vehicle: Klucel (hydroxypropylcellulose) (HPC)", "result": "170 % of control [survivor count not shown]"},
      {"measurement": "T/C", "setting": "dose: 6.2 mg/kg/injection, schedule: Q04DX003 (ip), vehicle: Klucel (hydroxypropylcellulose) (HPC)", "result": "114 % of control [survivor count not shown]"},
      {"measurement": "T/C", "setting": "dose: 6.25 mg/kg/injection, schedule: Q01DX009 (ip), vehicle: Klucel (hydroxypropylcellulose) (HPC)", "result": "121 % of control [survivor count not shown]"},
      {"measurement": "T/C", "setting": "dose: 6.25 mg/kg/injection, schedule: Q04DX003 (ip), vehicle: Klucel (hydroxypropylcellulose) (HPC)", "result": "101 % of control [survivor count not shown]"},
      {"measurement": "T/C", "setting": "dose: 8.3 mg/kg/injection, schedule: Q04DX003 (ip), vehicle: Klucel (hydroxypropylcellulose) (HPC)", "result": "139 % of control [survivor count not shown]"},
      {"measurement": "T/C", "setting": "dose: 12.5 mg/kg/injection, schedule: Q01DX009 (ip), vehicle: Klucel (hydroxypropylcellulose) (HPC)", "result": "176 % of control [survivor count not shown]"},
      {"measurement": "T/C", "setting": "dose: 12.5 mg/kg/injection, schedule: Q04DX003 (ip), vehicle: Klucel (hydroxypropylcellulose) (HPC)", "result": "101 [survivor count not shown], 136 [survivor count not shown], 155 % of control [survivor count not shown]"},
      {"measurement": "T/C", "setting": "dose: 18.0 mg/kg/injection, schedule: Q01DX009 (ip), vehicle: Klucel (hydroxypropylcellulose) (HPC)", "result": "95 % of control [survivor count not shown]"},
      {"measurement": "T/C", "setting": "dose: 18.7 mg/kg/injection, schedule: Q04DX003 (ip), vehicle: Klucel (hydroxypropylcellulose) (HPC)", "result": "111 % of control [survivor count not shown]"},
      {"measurement": "T/C", "setting": "dose: 25.0 mg/kg/injection, schedule: Q04DX003 (ip), vehicle: Klucel (hydroxypropylcellulose) (HPC)", "result": "100 [survivor count not shown] and 127 % of control [survivor count not shown]"},
      {"measurement": "T/C", "setting": "dose: 28.0 mg/kg/injection, schedule: Q01DX009 (ip), vehicle: Klucel (hydroxypropylcellulose) (HPC)", "result": "113 % of control [survivor count not shown]"}
    ]}
  ]
}
